These are yes or no findings as the source states them, for the method shown. Binding seen in cells or lysates may run through a third protein. Some entries that bind do so weakly or less than the wild type. For some assays here: Tags and fused reporters may be left off the sequences shown. One block for each molecule: values may come before it.
Key:
[1] = target: T1, FLAG-tagged RORα1 (UniProt P35398); assay: co-IP; endogenous β-catenin co-immunoprecipitated with FLAG-tagged RORα constructs; cell line not stated
T1 sequence: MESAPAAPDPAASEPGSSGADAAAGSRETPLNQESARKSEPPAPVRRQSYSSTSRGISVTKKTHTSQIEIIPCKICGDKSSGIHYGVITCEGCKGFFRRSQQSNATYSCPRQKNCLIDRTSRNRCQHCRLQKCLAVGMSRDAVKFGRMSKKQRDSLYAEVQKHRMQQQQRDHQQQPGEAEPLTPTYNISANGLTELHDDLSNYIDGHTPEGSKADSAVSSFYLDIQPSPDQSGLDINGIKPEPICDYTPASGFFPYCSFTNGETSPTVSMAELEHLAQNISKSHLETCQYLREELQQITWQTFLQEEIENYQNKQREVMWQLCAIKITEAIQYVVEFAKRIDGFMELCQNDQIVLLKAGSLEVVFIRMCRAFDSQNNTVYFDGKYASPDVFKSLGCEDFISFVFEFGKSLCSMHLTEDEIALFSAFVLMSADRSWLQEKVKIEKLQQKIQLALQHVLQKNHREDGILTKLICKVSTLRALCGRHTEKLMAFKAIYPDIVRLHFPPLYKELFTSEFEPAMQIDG

Chains of the proteins cited; added tags and fusions are not shown.
UniProt P35222: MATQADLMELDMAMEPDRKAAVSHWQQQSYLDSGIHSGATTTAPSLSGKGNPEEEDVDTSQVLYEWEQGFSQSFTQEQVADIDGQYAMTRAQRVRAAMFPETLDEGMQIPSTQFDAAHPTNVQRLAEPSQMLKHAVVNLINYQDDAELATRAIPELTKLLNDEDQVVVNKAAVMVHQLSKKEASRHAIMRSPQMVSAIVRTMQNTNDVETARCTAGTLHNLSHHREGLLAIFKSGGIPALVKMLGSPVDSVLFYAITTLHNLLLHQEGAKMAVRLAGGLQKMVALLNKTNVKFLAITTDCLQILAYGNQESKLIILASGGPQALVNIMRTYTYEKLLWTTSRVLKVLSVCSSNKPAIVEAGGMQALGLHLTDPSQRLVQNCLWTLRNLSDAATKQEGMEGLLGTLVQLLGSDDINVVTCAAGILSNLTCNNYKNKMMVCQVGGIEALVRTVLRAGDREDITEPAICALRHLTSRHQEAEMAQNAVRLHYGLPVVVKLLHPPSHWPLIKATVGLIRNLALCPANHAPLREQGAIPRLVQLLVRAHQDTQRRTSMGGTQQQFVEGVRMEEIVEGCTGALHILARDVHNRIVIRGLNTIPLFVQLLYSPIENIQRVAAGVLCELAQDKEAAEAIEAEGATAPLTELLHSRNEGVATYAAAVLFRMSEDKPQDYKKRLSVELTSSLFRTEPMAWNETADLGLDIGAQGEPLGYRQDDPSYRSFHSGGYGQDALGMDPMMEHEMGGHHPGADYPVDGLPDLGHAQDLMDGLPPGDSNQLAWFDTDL

[2] = target: GST fusion of β-catenin (UniProt P35222); assay: pull-down; GST β-catenin bound to Glutathione-Sepharose beads, incubated with in vitro transcribed and translated RORα proteins; 20 mM Tris-HCl (pH 7.5), 150 mM NaCl, 0.2% Nonidet P40, 10% glycerol; Western blot; only the target purified

binding [1]: binds
Molecule: endogenous β-catenin (from UniProt P35222 1-781)

binding [2]: binds
B1: RORα1 (retinoic acid receptor-related orphan receptor α, isoform 1), in vitro transcribed and translated (protein, UniProt P35398 1-523)
chain: T1 sequence

From paper PMC6479703
